{"source": "patent US20140193843A1", "about": "(Institut Pasteur, priority 2008, published 2014)", "key": {"[1]": {"test": "Quantification of Opiorphin in the tears of human volunteers (ELISA)"}, "[2]": {"test": "Quantification of Opiorphin in the seminal fluid from human volunteers (ELISA)"}, "[3]": {"test": "Quantification of Opiorphin in plasma from healthy human volunteers (SepPak, HPLC, ELISA)", "conditions": "for Mean ± SEM ng Opiorphin/ml initial plasma volume: extract concentrated 53-fold"}, "[4]": {"test": "Quantification of Opiorphin in the saliva from healthy human volunteers (ELISA)"}, "[5]": {"conditions": "volunteers with congenital bilateral agenesis, n=4"}}, "note": "No end group written: not given here.", "data": [{"substance": "QRFSR [Opiorphin, QRFSR]", "values": [{"measurement": "Opiorphin in tears, samples at or below detection limit", "setting": "[1]; healthy men volunteers, 6 samples of 9", "value": "(≦2 ng/ml)"}, {"measurement": "Mean ± SEM ng Opiorphin/ml tears", "setting": "[1]; healthy men volunteers, n=9", "value": "49±25", "unit": "ng Opiorphin/ml tears"}, {"measurement": "Opiorphin in tears, samples at or below detection limit", "setting": "[1]; healthy women volunteers, 1 sample of 14", "value": "(≦2 ng/ml)"}, {"measurement": "Mean ± SEM ng Opiorphin/ml tears", "setting": "[1]; healthy women volunteers, n=14", "value": "317±79", "unit": "ng Opiorphin/ml tears"}, {"measurement": "Mean ± SEM ng Opiorphin/ejaculation", "setting": "[2]; healthy volunteers, n=11", "value": "43.6±10.2", "unit": "ng Opiorphin/ejaculation"}, {"measurement": "Mean ± SEM ng Opiorphin/ml sperm", "setting": "[2]; healthy volunteers, n=11, EDTA plus HCl before acid-methanol extraction", "value": "12.9±1.8", "unit": "ng Opiorphin/ml sperm"}, {"measurement": "Mean ± SEM ng Opiorphin/ejaculation", "setting": "[2]; [5]", "value": "6.4 ± 1.6", "unit": "ng Opiorphin/ejaculation"}, {"measurement": "Mean ± SEM ng Opiorphin/ml sperm", "setting": "[2]; [5]", "value": "4.9±1.0", "unit": "ng Opiorphin/ml sperm"}, {"measurement": "Mean ± SEM ng Opiorphin/ml concentrated extract sample", "setting": "[3]; healthy man 1a-11, 9 determinations", "value": "73 ± 11 ng Opiorphin/ml concentrated extract sample"}, {"measurement": "Mean ± SEM ng Opiorphin/ml initial plasma volume", "setting": "[3]; healthy man 1a-11", "value": "1.4 ± 0.2 ng Opiorphin/ml initial plasma volume"}, {"measurement": "Mean ± SEM ng Opiorphin/ml concentrated extract sample", "setting": "[3]; healthy man 1a-12, 9 determinations", "value": "142 ± 33 ng Opiorphin/ml concentrated extract sample"}, {"measurement": "Mean ± SEM ng Opiorphin/ml initial plasma volume", "setting": "[3]; healthy man 1a-12", "value": "2.7 ± 0.6 ng Opiorphin/ml initial plasma volume"}, {"measurement": "Mean ± SEM ng Opiorphin/ml concentrated extract sample", "setting": "[3]; healthy woman 1b-3, 4 determinations", "value": "34 ± 3 ng Opiorphin/ml concentrated extract sample"}, {"measurement": "Mean ± SEM ng Opiorphin/ml initial plasma volume", "setting": "[3]; healthy woman 1b-3", "value": "0.6 ± 0.1 ng Opiorphin/ml initial plasma volume"}, {"measurement": "Mean ± SEM ng Opiorphin/ml concentrated extract sample", "setting": "[3]; healthy woman 1b-15, 4 determinations", "value": "79 ± 13 ng Opiorphin/ml concentrated extract sample"}, {"measurement": "Mean ± SEM ng Opiorphin/ml initial plasma volume", "setting": "[3]; healthy woman 1b-15", "value": "1.5 ± 0.2 ng Opiorphin/ml initial plasma volume"}, {"measurement": "Mean ± Standard Error of Mean (SEM) ng Opiorphin/ml saliva", "setting": "[4]; healthy men, basal condition, n=10", "value": "59±17", "unit": "ng Opiorphin/ml saliva"}, {"measurement": "Mean ± Standard Error of Mean (SEM) ng Opiorphin/ml saliva", "setting": "[4]; healthy men, stimulated condition (citric acid), n=6", "value": "738±146", "unit": "ng Opiorphin/ml saliva"}, {"measurement": "Mean ± Standard Error of Mean (SEM) ng Opiorphin/ml saliva", "setting": "[4]; healthy women, basal condition, n=10 (one sample excluded)", "value": "61±23", "unit": "ng Opiorphin/ml saliva"}, {"measurement": "Mean ± Standard Error of Mean (SEM) ng Opiorphin/ml saliva", "setting": "[4]; healthy women, stimulated condition (citric acid), n=13 (one sample excluded)", "value": "247±68", "unit": "ng Opiorphin/ml saliva"}]}]}
